The values that follow come from PubChem BioAssay AID328 (DTP/NCI, 2004).

In the assay the test system is BDF1 mice, P388 leukemia ip, median survival T/C. Briefly: NCI In Vivo Anticancer Drug Screen. Data for tumor model P388 Leukemia (intraperitoneal) in B6D2F1 (BDF1) mice. To be noted: T/C endpoint: median survival time, higher T/C = longer survival. In a few lines: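 Transplantable tumour in mice; compound vs vehicle dosing; survival scored; ratio of treated to control reported.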

Setting [1] is: dose: 400.0 mg/kg/injection, schedule: Q04DX003 (ip), vehicle: Klucel (hydroxypropylcellulose) (HPC).
Where [2] appears, read: dose: 200.0 mg/kg/injection, schedule: Q04DX003 (ip), vehicle: saline with Tween-80.
The mark [3] stands for this setting: dose: 400.0 mg/kg/injection, schedule: Q01DX009 (ip), vehicle: water.
Setting [4] is: dose: 200.0 mg/kg/injection, schedule: Q01DX009 (ip), vehicle: saline with Tween-80.

The structures appear in SMILES notation. The list shows only some results of the screen, not a fair sample: it is rich in T/C values a quarter to a half above the control, in often repeated tests (any T/C) and in doses without a T/C. Other doses and runs of a compound stand elsewhere. T/C is the treated group as % of the vehicle group. Some doses have a count of surviving animals in place of a T/C: the source files T/C as zero there, which appears to mark a toxic dose or a test without result, not a measured value. Some survivor counts are full or nearly so, which does not show that the dose was tolerated: the source hardly ever lists a survival T/C far under the control, and the zero likely stands for such cases as well. Survivors were counted at the toxicity check, usually on the fifth day, unless a day is given; later deaths do not show. Schedules are NCI's codes, taken here to give the interval after Q, in days (D) or hours (H), and the number of doses after X. Some entries hold several experiments; their values stand side by side, smallest first. For survival time, the PubChem record calls one and a half times the control and up active, and a quarter to a half above the control has no call in these data; cut-offs in other NCI protocols can differ. Some T/C values carry the count of animals alive at the toxicity check (mostly the fifth day); without a count, all were alive then.

With `N=c1c2c(C(N)=O)cn(C3OC(CO)C(O)C3O)c2ncn1O` (stereo not given), the T/C (dose: 3.0 mg/kg/injection, schedule: Q04DX003 (ip), vehicle: saline with Tween-80) was 140 % of control; the T/C (dose: 4.4 mg/kg/injection, schedule: Q04DX003 (ip), vehicle: saline with Tween-80) was 130 and 145 % of control; the T/C (dose: 6.7 mg/kg/injection, schedule: Q04DX003 (ip), vehicle: saline with Tween-80) is 134 % of control; the T/C (dose: 10.0 mg/kg/injection, schedule: Q04DX003 (ip), vehicle: saline with Tween-80) is 142 and 144 % of control; the T/C (dose: 15.0 mg/kg/injection, schedule: Q04DX003 (ip), vehicle: saline with Tween-80) was 130 % of control [5 of 6 alive]. For the same compound, the survivor count was 6 of 6 (dose: 4.5 mg/kg/injection, schedule: Q01DX009 (ip), vehicle: saline with Tween-80); 2 of 6 (dose: 20.0 mg/kg/injection, schedule: Q04DX003 (ip), vehicle: saline with Tween-80); 5 of 6 (dose: 23.0 mg/kg/injection, schedule: Q04DX003 (ip), vehicle: saline with Tween-80); 1 of 6 (dose: 35.0 mg/kg/injection, schedule: Q04DX003 (ip), vehicle: saline with Tween-80); 0 of 6 (dose: 40.0 mg/kg/injection, schedule: Q04DX003 (ip), vehicle: saline with Tween-80); 0 of 6 (dose: 50.0 mg/kg/injection, schedule: Q04DX003 (ip), vehicle: saline with Tween-80).
Regarding `c1ccc(N=NC2=NN(c3ccccc3)CS2)cc1`, the T/C (dose: 100.0 mg/kg/injection, schedule: Q01DX009 (ip), vehicle: saline with Tween-80) is 129 % of control.
As to `NC(=S)N/N=C\c1ncnc2nc[nH]c12`, the T/C (dose: 4.0 mg/kg/injection, schedule: Q01DX009 (ip), vehicle: Klucel (hydroxypropylcellulose) (HPC)) is 130 % of control; the T/C (dose: 8.0 mg/kg/injection, schedule: Q01DX009 (ip), vehicle: Klucel (hydroxypropylcellulose) (HPC)) was 126 % of control; the T/C (dose: 16.0 mg/kg/injection, schedule: Q01DX009 (ip), vehicle: Klucel (hydroxypropylcellulose) (HPC)) was 142 % of control [4 of 6 alive]. Further, the survivor count was 1 of 6 (dose: 32.0 mg/kg/injection, schedule: Q01DX009 (ip), vehicle: Klucel (hydroxypropylcellulose) (HPC)); 0 of 6 and 6 of 6 (dose: 64.0 mg/kg/injection, schedule: Q01DX009 (ip), vehicle: Klucel (hydroxypropylcellulose) (HPC)).
`c1ccc2c(c1)C1=NCCN1c1ccccc1-2`: where the note is “dose: 40.0 mg/kg/injection, schedule: Q01DX009 (ip), vehicle: Klucel (hydroxypropylcellulose) (HPC)”, the T/C was 125 and 136 % of control [5 of 6 alive]. Also, the survivor count is given as 0 of 6 (dose: 60.0 mg/kg/injection, schedule: Q01DX009 (ip), vehicle: Klucel (hydroxypropylcellulose) (HPC)); 0 of 6 (dose: 100.0 mg/kg/injection, schedule: Q04DX003 (ip), vehicle: Klucel (hydroxypropylcellulose) (HPC)); 0 of 6 (dose: 200.0 mg/kg/injection, schedule: Q04DX003 (ip), vehicle: Klucel (hydroxypropylcellulose) (HPC)); 0 of 6 under setting [1].
For `O=[N+]([O-])c1ccc(Oc2cc(Cl)c(Cl)cc2Cl)c([N+](=O)[O-])c1`, the survivor count (dose: 100.0 mg/kg/injection, schedule: Q01DX009 (ip), vehicle: saline sonified) is 6 of 6.
For `CC(C(=O)O)c1ccc2c(c1)[nH]c1ccc(Cl)cc12` (stereo not given), the survivor count (dose: 50.0 mg/kg/injection, schedule: Q01DX009 (ip), vehicle: saline with Tween-80) is 6 of 6.
Regarding `NC(=O)c1cc(=S)[nH]c2nc(Cl)nc(N)c12`, the survivor count (dose: 200.0 mg/kg/injection, schedule: Q04DX002 (ip), vehicle: saline with Tween-80) was 4 of 6 and the survivor count (dose: 400.0 mg/kg/injection, schedule: Q04DX002 (ip), vehicle: saline with Tween-80) is 1 of 6.
As to `NC(=S)N/N=C/c1ccc(C(F)(F)F)cn1`, the T/C reads like this: (dose: 13.3 mg/kg/injection, schedule: Q01DX009 (ip), vehicle: Klucel (hydroxypropylcellulose) (HPC)) 127 % of control; (dose: 20.0 mg/kg/injection, schedule: Q01DX009 (ip), vehicle: Klucel (hydroxypropylcellulose) (HPC)) 132 % of control [4 of 6 alive]. For the same compound, the survivor count (dose: 30.0 mg/kg/injection, schedule: Q01DX009 (ip), vehicle: Klucel (hydroxypropylcellulose) (HPC)) was 4 of 6; the survivor count (dose: 45.0 mg/kg/injection, schedule: Q01DX009 (ip), vehicle: Klucel (hydroxypropylcellulose) (HPC)) is on record as 1 of 6; the survivor count (dose: 67.5 mg/kg/injection, schedule: Q01DX009 (ip), vehicle: Klucel (hydroxypropylcellulose) (HPC)) is recorded as 0 of 6.
On to `Cc1ccc(N2C(=O)CC(Sc3ccccc3N)C2=O)cc1` (stereo not given), for which the survivor count under setting [1] is listed as 6 of 6.
In the case of `CN=C(NN(C)C)c1ccc(NC(=O)c2ccc(C(=O)Nc3ccc(C(=NC)NN(C)C)cc3)cc2)cc1`, the T/C (dose: 6.0 mg/kg/injection, schedule: Q01DX009 (ip), vehicle: saline with Tween-80) was 141 % of control.
Turning to `OCCNCCN1CCN(CCCN2c3ccccc3Sc3ccc(C(F)(F)F)cc32)CC1`, the T/C (dose: 12.5 mg/kg/injection, schedule: Q04DX003 (ip), vehicle: saline) is 135 % of control. For the same compound, the survivor count (dose: 50.0 mg/kg/injection, schedule: Q04DX003 (ip), vehicle: saline) is listed as 6 of 6.
For the compound `CCCCCCC(=O)CCCCCCCCCCCCC(=O)OC`, the survivor count is 6 of 6 (dose: 100.0 mg/kg/injection, schedule: Q04DX003 (ip), vehicle: saline with Tween-80); 5 of 6 under setting [2]; 5 of 6 (dose: 400.0 mg/kg/injection, schedule: Q04DX003 (ip), vehicle: saline with Tween-80).
Consider `O=[N+]([O-])c1ccc(-n2[nH]nnc2=S)cc1`, for which, under setting [2], the T/C was 130 % of control.
On to `CC(=O)Nc1ccc(SSSc2ccc(NC(C)=O)cc2)cc1`, for which the T/C (dose: 300.0 mg/kg/injection, schedule: Q01DX009 (ip), vehicle: water) is 136 % of control. Besides, under setting [3], the survivor count was 3 of 6.
As to `COc1ccc(C2C=C(c3ccc4c(c3)OCO4)Oc3c2c(=O)oc2ccccc32)cc1OC` (stereo not given), the survivor count under setting [3] was 5 of 6.
Turning to `COc1ccc(CC2C(=O)NC(C)C(=O)N(C)C3Cc4ccc(cc4)Oc4cc(ccc4O)CC(C(=O)NC(C)C(=O)NC(C)C(=O)N2C)N(C)C3=O)cc1` (stereo not given), the T/C was 127 % of control (dose: 1.56 mg/kg/injection, schedule: Q04DX003 (ip), vehicle: other) and 145 % of control (dose: 2.59 mg/kg/injection, schedule: Q04DX003 (ip), vehicle: other). For the same compound, the survivor count (dose: 12.0 mg/kg/injection, schedule: Q04DX003 (ip), vehicle: other) is on record as 5 of 8 and the survivor count (dose: 20.0 mg/kg/injection, schedule: Q04DX003 (ip), vehicle: other) is 4 of 8.
Regarding `CCOc1ccc(NC(=S)N(C)C)cc1`, the survivor count under setting [4] was 0 of 6.
As for `O=C(CS)OCCOC(=O)CS`, the survivor count by setting is: (dose: 100.0 mg/kg/injection, schedule: Q04DX003 (ip), vehicle: saline) 6 of 6; (dose: 200.0 mg/kg/injection, schedule: Q01DX009 (ip), vehicle: Klucel (hydroxypropylcellulose) (HPC)) 3 of 6; (dose: 200.0 mg/kg/injection, schedule: Q04DX003 (ip), vehicle: saline) 6 of 6; (dose: 400.0 mg/kg/injection, schedule: Q04DX003 (ip), vehicle: saline) 6 of 6.
For the compound `NC(=S)N/N=C\c1c[nH]c2nccnc12`, the survivor count (dose: 200.0 mg/kg/injection, schedule: Q01DX009 (ip), vehicle: water) was 6 of 6.
With `CCOc1cccc(/C=N/n2c(-c3ccccc3Cl)nc3ccccc3c2=O)c1O`, the survivor count under setting [4] is listed as 6 of 6.
Take `CC12CCC(C1)C(C)(C)C2NCCCN1C(=O)c2ccc3c4c(ccc(c24)C1=O)C(=O)N(CCCNC1C2(C)CCC(C2)C1(C)C)C3=O` (stereo not given): the survivor count by setting is: (dose: 50.0 mg/kg/injection, schedule: Q01DX009 (ip), vehicle: Klucel (hydroxypropylcellulose) (HPC)) 6 of 6; (dose: 100.0 mg/kg/injection, schedule: Q01DX009 (ip), vehicle: Klucel (hydroxypropylcellulose) (HPC)) 3 of 6.
